# Measured values from publication PMC7077221.
# Sequences of proteins named here, by UniProt entry; tags and fusion partners are left off.
# UniProt P03521: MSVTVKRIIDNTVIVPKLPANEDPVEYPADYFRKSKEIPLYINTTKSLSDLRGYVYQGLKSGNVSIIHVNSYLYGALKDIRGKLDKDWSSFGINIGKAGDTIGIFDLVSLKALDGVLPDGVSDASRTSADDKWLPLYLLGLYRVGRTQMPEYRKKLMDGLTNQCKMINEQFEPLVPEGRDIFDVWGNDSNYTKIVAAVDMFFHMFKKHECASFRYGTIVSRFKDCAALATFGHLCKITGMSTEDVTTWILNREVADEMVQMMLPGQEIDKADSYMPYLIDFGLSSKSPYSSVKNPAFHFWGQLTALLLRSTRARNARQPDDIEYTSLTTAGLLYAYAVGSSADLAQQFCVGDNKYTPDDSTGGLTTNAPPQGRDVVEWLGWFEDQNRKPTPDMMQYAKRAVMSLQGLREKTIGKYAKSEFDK
# No constants are given. Whether binding was seen depends on the method and setting. In cells and extracts the contact can be indirect. Some entries that bind do so weakly or less than the wild type. Sequences can lack the tags named with a protein.
# B1: HA-tagged tripartite motif protein 41 (TRIM41-HA) (enzyme, UniProt Q8WV44 1-630)
# chain: MAAVAMTPNPVQTLQEEAVCAICLDYFTDPVSIGCGHNFCRVCVTQLWGGEDEEDRDELDREEEEEDGEEEEVEAVGAGAGWDTPMRDEDYEGDMEEEVEEEEEGVFWTSGMSRSSWDNMDYVWEEEDEEEDLDYYLGDMEEEDLRGEDEEDEEEVLEEVEEEDLDPVTPLPPPPAPRRCFTCPQCRKSFPRRSFRPNLQLANMVQVIRQMHPTPGRGSRVTDQGICPKHQEALKLFCEVDEEAICVVCRESRSHKQHSVVPLEEVVQEYKAKLQGHVEPLRKHLEAVQKMKAKEERRVTELKSQMKSELAAVASEFGRLTRFLAEEQAGLERRLREMHEAQLGRAGAAASRLAEQAAQLSRLLAEAQERSQQGGLRLLQDIKETFNRCEEVQLQPPEVWSPDPCQPHSHDFLTDAIVRKMSRMFCQAARVDLTLDPDTAHPALMLSPDRRGVRLAERRQEVADHPKRFSADCCVLGAQGFRSGRHYWEVEVGGRRGWAVGAARESTHHKEKVGPGGSSVGSGDASSSRHHHRRRRLHLPQQPLLQREVWCVGTNGKRYQAQSSTEQTLLSPSEKPRRFGVYLDYEAGRLGFYNAETLAHVHTFSAAFLGERVFPFFRVLSKGTRIKLCP
# Target: FLAG-tagged nucleoprotein (N) of vesicular stomatitis virus (VSV-N-FLAG) (vesicular stomatitis virus (VSV)) (UniProt P03521)
# Experiment: co-IP
binder,measurement,value
B1,binding,binds
